Values quoted from earlier work as cited in patent publication US8076318B2, “Caged ligands and uses thereof” (priority 2002, dated 2011).
Some results were stated once for a whole list of compounds, not compound by compound. At least one compound was matched to its structure with a doubt left.

Tested on: ecdysone-inducible gene expression system
Conditions: cell-based systems; No et al., 1996; Albanese et al., 2000; cited from earlier work

CC(C)CC[C@@H](O)[C@](C)(O)[C@H]1CC[C@@]2(O)C3=CC(=O)[C@@H]4C[C@@H](O)[C@@H](O)C[C@]4(C)[C@H]3CC[C@]12C [ponasterone A 7, ponasterone A]
Induction of transcriptional activity: up to 20,000 fold

CC(C)CC[C@@H](O)[C@](C)(O)[C@H]1CC[C@@]2(O)C3=CC(=O)[C@]4(O)C[C@@H](O)[C@@H](O)C[C@]4(C)[C@H]3[C@H](O)C[C@]12C [muristerone 6, muristerone]
Induction of transcriptional activity: up to 20,000 fold
